# PubChem BioAssay AID504467 (National Center for Advancing Translational Sciences (NCATS), 2011)
# The campaign covered roughly 330,000 compounds. About 7,700 (2.3%) were called active. Inconclusive means that the source gave no clear call. Such entries were picked first, then a sample of the others. The call rests on the fitted dose curve; in most records, active means well fitted inhibition curve with a large enough effect; inconclusive means small, poorly fitted or top-dose-only effect, or effect the other way; inactive means flat fitted curve, though single readings scatter. Potencies of inconclusive entries are doubtful fits and often do not repeat.
# Test: qHTS screen for small molecules that inhibit ELG1-dependent DNA repair in human embryonic kidney (HEK293T) cells expressing luciferase-tagged ELG1; further: nearly all actives have a fitted effect of over 55% in size
# Conditions: HEK293T ELG1-luciferase reporter, luminescence, 16 h, DNA damage induced by 5-fluorouridine; series mostly up to 46.1 µM
# Method in brief: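 Cells (2,000 per well) received 5-fluorouridine plus test compound or DMSO and were incubated 16 hr at 37 °C, 5% CO2. Luciferase activity was read by luminescence 30 min after ONE-Glo addition; signal suppression marked inhibition of damage-induced ELG1 function.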
# Potency means the concentration at half of the fitted maximal effect.
row,SMILES,Potency
1,COc1cccc(N2CCN(c3c(C#N)c(C(F)(F)F)nn3C)CC2)c1,active: 14.6 µM
2,O=[N+]([O-])c1ccc(OCCO)c(P(=O)(c2ccccc2)c2ccccc2)c1,inactive
3,COc1ccc(C(=O)C2CCN(C(=O)Nc3ccc(C)cc3)CC2)cc1,inactive
4,COc1cc2ccccc2cc1C(=O)N1CCOCC1,"inconclusive: 29.1 µM [activator, single point]"
5,CCC(=O)Nc1ccc(N2CCCCC2)c(C(=O)Nc2ccccc2C)c1,"inconclusive: 25.9 µM [inhibitor, single point]"
6,Cc1cc(C(=O)NC2CCCc3ccccc32)no1 (configuration not stated),"inconclusive: 0.259 µM [activator, full curve, poor fit]"
7,COC(=O)C1C(=O)C=C(Nc2ccc(F)cc2)CC1c1ccc(OC)cc1 (configuration not stated),"inconclusive: 20.6 µM [activator, partial curve]"
8,CSCC[C@@H](C(=O)Nc1ccc2c(c1)OCCO2)N1Cc2ccccc2C1=O,"inconclusive: 18.4 µM [activator, partial curve]"
9,COc1ccc(N(C(=O)Cc2cccs2)C(C(=O)NC2CCCCC2)c2cccn2C)cc1OC (configuration not stated),inactive
10,COc1ccc(OC)c(NC(=O)CN(C)CC(=O)Nc2ccccc2Br)c1,"inconclusive: 20.6 µM [inhibitor, single point]"
11,C=CCn1c(=O)c(C(=O)Nc2ccc(C)cc2)c(O)c2ccccc21,"inconclusive: 20.6 µM [activator, single point]"
12,C#CCOCCOCCOCCNc1nc(N2CCN(C(=O)CCCCCCCCCCNC(=O)[C@H](CO)n3cc(CCCSC)nn3)CC2)nc(N2CCN(C(=O)CCCCCCCCCCNC(=O)[C@H](CCCCN)n3cc(C[C@@H](C)CC)nn3)CC2)n1,"inconclusive: 25.9 µM [inhibitor, single point]"
13,Cc1ccc(OCCSc2ncnc3sc(C)c(C)c23)cc1C,inactive
14,Cc1ccc(OCCCn2c(=O)sc3ccccc32)cc1,"inconclusive: 11.2 µM [activator, single point]"
15,COc1cc(CN2CCCC(C(=O)c3ccccc3SC)C2)cc(OC)c1 (configuration not stated),"inconclusive: 23.1 µM [inhibitor, single point]"
16,O=C1NN(c2ccccc2)C(=O)/C1=C/c1ccc(-c2cccc(C(=O)O)c2)o1,"inconclusive: 16.4 µM [activator, partial curve]"
17,N#CC1=C(N)SC(N)=C(C#N)C1c1ccoc1,inactive
18,Cn1nnnc1SCC(=O)Nc1ccc2c(c1)OCCO2,"inconclusive: 8.2 µM [activator, partial curve]"
19,CC(C)(CNC(=O)c1ccc(-c2cccc(C(F)(F)F)c2)o1)N1CCOCC1,inactive
20,CC(C)n1nc(C(=O)Nc2cccc(S(=O)(=O)NCc3ccco3)c2)c2ccccc2c1=O,"inconclusive: 23.1 µM [inhibitor, single point]"
21,CC12CCC(C(=O)N(NC(=O)c3ccccc3Cl)C1=O)C2(C)C (configuration not stated),inactive
22,CCN(CC)c1ccc(CNc2ccc(Br)cn2)cc1,"inconclusive: 2.91 µM [activator, single point]"
23,CC1=C(SCCC#N)S/C(=C2\SC(C)=C(SCCC#N)S2)S1,"inconclusive: 16.4 µM [activator, single point]"
24,CCOc1ccc(-c2nnc3sc(COc4ccccc4)nn23)cc1,inactive

# A few values from above.
# C=CCn1c(=O)c(C(=O)Nc2ccc(C)cc2)c(O)c2ccccc21 | Potency: inconclusive: 20.6 µM [activator, single point]
# CCC(=O)Nc1ccc(N2CCCCC2)c(C(=O)Nc2ccccc2C)c1 | Potency: inconclusive: 25.9 µM [inhibitor, single point]

# (list continues)

row,SMILES,Potency
1,O=C(CCS(=O)(=O)c1ccccc1)Nc1cccc(-c2nc3ccccc3s2)c1,"inconclusive: 25.9 µM [inhibitor, single point]"
2,CC(=O)c1ccc(OCCOc2ccc([N+](=O)[O-])cc2)cc1,"inconclusive: 32.6 µM [activator, partial curve, poor fit]"
3,Fc1ccc(COc2ccc(C(=S)N3CCCC3)cc2)cc1,"inconclusive: 14.1 µM [activator, partial curve]"
4,O=C(/C=C/c1ccco1)Oc1cccc2cccnc12,"inconclusive: 20.6 µM [inhibitor, single point]"
5,Cc1cc(N)c2ccccc2n1,inactive
6,COC(=O)c1ccc(C(=O)NCCCCO)cc1,"inconclusive: 0.517 µM [inhibitor, partial curve, poor fit]"
7,O=C(c1ccc(OC2CCN(C(=O)c3cccnc3)CC2)cc1)N1CCCCCC1,"inconclusive: 29.1 µM [inhibitor, single point]"
8,COc1ccc2oc(C(=O)OCC(=O)N3CCCC3=O)c(C)c2c1,"inconclusive: 0.517 µM [activator, single point]"
9,CCc1ccccc1N(CC(=O)Nc1cccnc1)S(=O)(=O)c1ccccc1,"inconclusive: 18.3 µM [inhibitor, partial curve, poor fit]"
10,COc1cc(OC)cc(C(=O)Nc2ccc(-c3nc4ccccc4o3)cc2)c1,"inconclusive: 32.6 µM [inhibitor, partial curve, poor fit]"
11,O=C(/C=C/c1c(Cl)nc2ccccn12)N1CCCCC1,"inconclusive: 20.6 µM [activator, single point]"
12,CCOC(=O)c1c(NC(=O)C2CCCCC2)sc2c1CCN(C(C)C)C2,inactive
13,C=CCn1c(O)c2ccc(C(=O)N=NC(=O)COc3ccccc3F)cc2c1O,inactive
14,CCOc1ncccc1C(=O)OCC(=O)NC1CCCCC1,"inconclusive: 18.3 µM [activator, single point]"
15,CSC(=NC#N)N1CCN(c2ccccc2)CC1,"inconclusive: 29.1 µM [activator, single point]"
16,O=C(NCCc1ccccc1)c1cccc([N+](=O)[O-])c1,"inconclusive: 23.1 µM [activator, partial curve]"
17,CCC(=O)Nc1nnc(CSCc2ccc(F)cc2)s1,"inconclusive: 13 µM [activator, partial curve, poor fit]"
18,COc1cccc(NC(=O)COC(=O)c2ccccc2C(=O)N2CCN(c3ccccc3)CC2)c1,"inconclusive: 29.1 µM [inhibitor, single point]"
19,CCN(CC)S(=O)(=O)c1cccc(-c2n[nH]c(=S)n2/N=C/c2ccc(OC(F)F)cc2)c1,inactive
20,Cc1ccc(OCC(=O)O/N=C(\N)c2ccncc2)c(C)c1,"inconclusive: 14.6 µM [activator, partial curve]"
21,CN1C[N+]([O-])=C(c2ccccc2)C1(C)C,inactive
22,Cc1noc(C)c1COc1ccc(C(=O)N2CCN(c3ccccc3O)CC2)cc1,"inconclusive: 20.6 µM [inhibitor, single point]"
23,Cc1ccc(-c2csc(-c3cc(C)on3)n2)cc1,"inconclusive: 18.3 µM [activator, partial curve]"
24,CC(=O)c1cccc(NC(=O)Nc2cnn(Cc3ccc(Cl)cc3Cl)c2)c1,active: 25.9 µM

row,SMILES,Potency
1,COc1ccc(NC(=O)NC(=O)c2ccccc2)cc1,"inconclusive: 1.83 µM [activator, full curve]"
2,CCCC(C)C(=O)Nc1ccc2c(c1)OCCO2 (configuration not stated),"inconclusive: 23.1 µM [activator, partial curve]"
3,CCOC(=O)c1c(NC(=O)CN2CCOCC2)sc2c1CCCC2=O,inactive
4,Cc1cccc(CNC(=O)C2CCC(=O)N(C3CC3)C2)c1 (configuration not stated),"inconclusive: 29.1 µM [activator, single point]"
5,CS(=O)(=O)Nc1ccc(Br)cc1C(=O)c1ccccc1,"inconclusive: 16.4 µM [activator, partial curve]"
6,COc1ccc(C2N(Cc3ccccc3)CCN2Cc2ccccc2)cc1[N+](=O)[O-],inactive
7,Cc1ccnc(NC2CCCCC2)c1,inactive
8,N#Cc1c(N)nc(SCc2ccccc2)c(C#N)c1-c1ccco1,"inconclusive: 16.4 µM [inhibitor, single point]"
9,COc1cc(C2C(C#N)=C(N)Oc3cc(O)ccc32)cc2c1OCO2 (configuration not stated),"inconclusive: 6.51 µM [activator, partial curve]"
10,O=C(O)CCCCNCc1ccccc1,inactive
11,CC(C)(C)c1ccc(OCCCC(=O)N2CCOCC2)cc1,"inconclusive: 20.6 µM [activator, partial curve]"
12,COc1ccccc1CC(=O)N1CCN(c2ccccc2F)CC1,inactive
13,Cc1ccnc(NC(=O)c2cccc(NC(=O)CC3SC(N4CCCCC4)=NC3=O)c2)c1 (configuration not stated),"inconclusive: 6.51 µM [inhibitor, partial curve]"
14,COC(c1ccc(Cl)cc1)(c1ccc(Cl)cc1)C(Oc1nccc(C)n1)C(=O)O (configuration not stated),inactive
15,CCC(=O)N/C(N)=N/c1nc(C)c2cc(OC)ccc2n1,"inconclusive: 4.11 µM [activator, single point]"
16,COc1ccc(/C=N/NC(=O)C[n+]2ccccc2)c(OC)c1,inactive
17,Cc1cc(OC(C)C(=O)Nc2ccncc2)ccc1Cl (configuration not stated),"inconclusive: 0.517 µM [inhibitor, partial curve, poor fit]"
18,Nc1nc2nc(-c3ccc(F)cc3)cc(C(F)(F)F)n2n1,inactive
19,Cc1cc(NC(=O)c2noc3c2CCCC3)n(-c2ccccc2)n1,inactive
20,Cc1nc(N)sc1-c1csc(Nc2ccccn2)n1,"inconclusive: 2.59 µM [activator, partial curve]"
21,Fc1ccc(-c2ccc(NCCN3CCOCC3)nn2)cc1,"inconclusive: 20.6 µM [activator, partial curve]"
22,Cc1cc(C)c(NC(=O)NC(=O)c2ccc(F)cc2)c(C)n1,"inconclusive: 29.1 µM [activator, single point]"
23,COc1ccc(-c2nc(N3CCCCCC3)sc2C(=O)c2ccccc2)cc1,"inconclusive: 23.1 µM [inhibitor, single point]"
24,CC1CN(S(=O)(=O)c2ccc(C(=O)Nc3sc4c(c3C(N)=O)CCN(C)C4)cc2)CC(C)O1 (configuration not stated),"inconclusive: 20.6 µM [activator, partial curve, poor fit]"

# Some of the entries above, set out differently.
row	SMILES	Potency
8	CSCC[C@@H](C(=O)Nc1ccc2c(c1)OCCO2)N1Cc2ccccc2C1=O	inconclusive: 18.4 µM [activator, partial curve]
24	CCOc1ccc(-c2nnc3sc(COc4ccccc4)nn23)cc1	inactive
19	CCN(CC)S(=O)(=O)c1cccc(-c2n[nH]c(=S)n2/N=C/c2ccc(OC(F)F)cc2)c1	inactive
